Earlier results, collected in patent US8222425B2, “Organic compounds and their uses” (Novartis AG, priority 2007, dated 2012).

Tested on: HCV
Conditions: ribavirin alone, patients; cited from earlier work

## NC(=O)c1ncn([C@@H]2O[C@H](CO)[C@@H](O)[C@H]2O)n1 [Ribavirin, 1-β-D-ribofuranosyl-1-1,2,4-triazole-3-caroxamide]
  effect on serum levels of HCV-RNA: does not lower serum levels of HCV-RNA
